According to patent US20250041291A1, “COMPOSITIONS AND METHODS FOR TREATING CANCER” (Emmaus Life Sciences, Inc, priority 2021, published 2025):
For at least one compound, name, drawing or mass did not settle the structure.

Assays:
Format in all cases: cell-based
[1] = tested on: MWCL-1 cells (adult Waldenström macroglobulinemia cells) expressing the Myd88 L265P mutation; assay: cell number (proliferation) of MWCL-1 cells expressing Myd88 L265P; conditions: 0.05 to 100 μM, dose response; 25% FBS
Description: (§1) In this study, MWCL-1 cells (adult Waldenström macroglobulinemia cells) expressing the Myd88 L265P mutation were used to test different drugs for their effects on cell proliferation and apoptosis. Midostaurin (an inhibitor of FLT3, mido) was used as reference control.
(§2) MWCL-1 cells were cultured in RPMI1640, in presence of 2, 10 and 25% of fetal bovine serum (FBS). The number of MWCL-1 cells decreased only at higher Compound A concentration (50 and 100 μM), during a 24 h treatment, at 2, 10 and 25% FBS (FIGS. 6A, 7A and 8A). Also, the levels of caspase 3/7 activity in the cells were elevated only at the higher concentrations (50 and 100 μM, FIGS. 6B, 7B and 8B), which is consistent with the decreased cell growth.

[2] = tested on: MWCL-1 cells (adult Waldenström macroglobulinemia cells) expressing the Myd88 L265P mutation; assay: caspase 3/7 activity (apoptosis) in MWCL-1 cells expressing Myd88 L265P; conditions: 0.05 to 100 μM, dose response; 25% FBS
Description: as §1, §2

[3] = tested on: MOLM-13 cells (adult acute myeloid leukemia) expressing the FLT3-ITD mutation; assay: caspase 3/7 activity (apoptosis) in MOLM-13 cells expressing FLT3-ITD; conditions: 0.05 to 100 μM, dose-dependent; 2, 10 or 25% FBS
Description: (§3) In this example, MOLM-13 cells (adult acute myeloid leukemia) expressing the FLT3-ITD mutation were used to test Compound A to decrease their cell proliferation and increase their apoptosis level. Midostaurin (mido), an inhibitor of FLT3, was used as a positive control.
(§4) MOLM-13 cells were cultured in RPMI1640, red phenol free, in presence of 2, 10 and 25% of fetal bovine serum (FBS). 25% FBS simulates the level of serum present in the blood. Adipose stromal cells (ASC) and human fibroblast primary cells were used as reference controls. Compound A, at various concentrations (0.05 to 100 μM), was added to the cells and incubated for 24 h, with or without the co-treatment with olaparib (a PARP inhibitor, Ola). Olaparib or ibrutinib (a BTK inhibitor) alone was also tested with these cells.

[4] = tested on: human adipose stromal cells (ASC); assay: caspase 3/7 activity (apoptosis) in human adipose stromal cells; conditions: all tested concentrations (up to 100 μM); 25% FBS; 24 h
Description: as §4

[5] = tested on: human adipose stromal cells (ASC); assay: cell number (proliferation) of human adipose stromal cells after 24 h treatment; conditions: 5 μM to 100 μM, 25% FBS
Description: as §4

[6] = tested on: MOLM-13 cells (adult acute myeloid leukemia) expressing the FLT3-ITD mutation; assay: cell number (proliferation) of MOLM-13 cells expressing FLT3-ITD
Description: as §3, §4

CO[C@@H]1[C@H](N(C)C(=O)c2ccccc2)C[C@H]2O[C@]1(C)n1c3ccccc3c3c4c(c5c6ccccc6n2c5c31)C(=O)NC4 [midostaurin, Midostaurin]
number of MWCL-1 cells [1]: reducing the number of MWCL-1 cells | caspase 3/7 activity in MWCL-1 cells [2]: increasing the caspase 3/7 activity | caspase 3/7 activity in the MOLM-13 cells [3]: increased caspase 3/7 activity | activity of caspase 3 or 7 / induction of apoptosis in ASC [4]: did not activate caspase 3/7 | ASC cell growth [5]: inhibited cell growth | numbers of MOLM-13 cells ([6]; 0.05 to 100 μM, dose-dependent, 2, 10 or 25% FBS): reduced the numbers of cells | efficiency compared with the other compound (cell numbers and caspase 3/7 activity, MOLM-13) ([6]; at the lowest doses): more efficient than Compound A
